These are yes or no findings as the source states them, for the method shown. A result given as binding can be weak or reduced; the word gives no strength.
Tests used:
[1] = target: monomeric streptavidin variant mSA2; assay: fluorescent binding assay: labeled mSA2 in PBS applied to the protein monolayer, rinsed, fluorescence microscopy
[2] = target: monomeric streptavidin variant mSA2; assay: fluorescent binding assay, labeled mSA2 in PBS on the monolayer, 4 h exposure
[3] = target: monomeric streptavidin variant mSA2; assay: fluorescent time-course assay, labeled mSA2 on monolayer
[4] = target: monomeric streptavidin variant mSA2; assay: fluorescent diffusion assay: monolayer exposed to 800 nM labeled mSA2 for 0.5-8 h, rinsed
[5] = target: monomeric streptavidin variant mSA2; assay: fluorescent binding assay, labeled mSA2 on monolayer
[6] = target: monomeric streptavidin variant mSA2; assay: fluorescent binding assay, labeled mSA2 in 50% blood serum on the monolayer, 4 h exposure
[7] = target: monomeric streptavidin variant mSA2; assay: fluorescent binding assay, labeled mSA2 in 50% urine on the monolayer, 4 h exposure

Measured: binding

B1: rcSso7d.SA monolayer (designed binder)
chain: MGSIHHHHHHSSGLVPRGSHMCATVKFTYQGEEKQVDISKIKIVARDGQYIDFKYDEGGGAYGYGWVSEKDAPKELLQMLEKQ
modifications: EDC/NHS-activated protein coupled to an amine-functionalized silicon wafer
binds: [1] | [2] | [3] | [4] | [5] | [6] | [7]

From patent US20200057058A1
